From publication PMC5118791 come the findings set out here.

Sequences of proteins named here, by UniProt entry; tags and fusion partners are left off. Residues count along the entry.
UniProt P16070, residues 21-742: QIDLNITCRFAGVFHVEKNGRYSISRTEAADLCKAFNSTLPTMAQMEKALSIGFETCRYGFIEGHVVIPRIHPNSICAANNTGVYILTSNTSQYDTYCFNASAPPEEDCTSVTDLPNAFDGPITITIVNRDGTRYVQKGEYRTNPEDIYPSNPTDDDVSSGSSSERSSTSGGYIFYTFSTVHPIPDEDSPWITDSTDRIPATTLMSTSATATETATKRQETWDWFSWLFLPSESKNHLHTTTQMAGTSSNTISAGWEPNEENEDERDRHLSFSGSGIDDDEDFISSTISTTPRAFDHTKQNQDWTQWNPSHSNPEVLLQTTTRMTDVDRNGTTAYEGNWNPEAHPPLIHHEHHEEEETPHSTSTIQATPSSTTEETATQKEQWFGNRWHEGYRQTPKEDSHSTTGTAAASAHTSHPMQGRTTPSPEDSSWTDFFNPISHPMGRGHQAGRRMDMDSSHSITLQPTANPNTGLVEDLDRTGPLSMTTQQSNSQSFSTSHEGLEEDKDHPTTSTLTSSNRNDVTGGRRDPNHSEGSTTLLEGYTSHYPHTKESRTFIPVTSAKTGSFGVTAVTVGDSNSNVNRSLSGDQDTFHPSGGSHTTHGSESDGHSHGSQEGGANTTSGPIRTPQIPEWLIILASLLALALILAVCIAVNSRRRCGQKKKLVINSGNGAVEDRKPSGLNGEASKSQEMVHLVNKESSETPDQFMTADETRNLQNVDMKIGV
UniProt P61604: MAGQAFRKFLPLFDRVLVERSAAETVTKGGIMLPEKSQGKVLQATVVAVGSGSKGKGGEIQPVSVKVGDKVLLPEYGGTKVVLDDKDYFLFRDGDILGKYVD

The target in this assay is CD44, endogenous on MDA-MB-468 breast cancer cells (human (endogenous in MDA-MB-468)) (UniProt P16070). Briefly: flow cytometry on cells; MDA-MB-468 cells, 4 °C, 1 hr, PBS pH 7.4, 0.1% sodium azide, 1% BSA; indirect (FITC-rabbit anti-human Cpn10) or direct (488-CP7) detection; only the binder purified. In general terms: In flow cytometry, cells or beads pass a laser one at a time.

These are yes or no findings as the source states them, for the method shown.

Take “human Chaperonin 10 (hCpn10), wild type (from UniProt P61604 1-102)”: the binding entry was “no binding”.
